Source: US20090143279A1 (priority 2007, published 2009)
Read-outs that look alike come from different tables or passages of the source. At least one read-out could not be matched to a standard name with certainty. Where a SMILES comes first, the peptide text is derived from it.

Assays:
[1] = test system: mitochondrial membrane potential; assay type: cell-based, mouse
reactive oxygen species = assay type: cell-based, mouse
OXPHOS gene expression = assay type: cell-based, mouse
nuOXPHOS transcripts = assay type: cell-based, mouse
mtOXPHOS transcripts = assay type: cell-based, mouse
[2] = test system: cellular dehydrogenase activity
[3] = composite Z-score vs mock-treated (DMSO) wells, concentration of each compound in μM

SMILES	ΔΨm [1, 3]	ROS (reactive oxygen species; [3])	GE-HTS (OXPHOS gene expression; [3])	nucOX (nuOXPHOS transcripts; [3])	mitoOX (mtOXPHOS transcripts; [3])	Viability (C2C12 myotubes; [3])	MTT [2, 3]	ROS (reactive oxygen species)	GE-HTS (OXPHOS gene expression)	nucOX (nuOXPHOS transcripts)	mitoOX (mtOXPHOS transcripts)	Viability (C2C12 myotubes)	MTT [2]	other results
N[C@@H](Cc1ccccc1)C(=O)N[C@@H](Cc1ccc(O)cc1)C(=O)O [phenylalanyltyrosine] (H-Phe-Tyr-OH)	−1.085	0.132	−0.424	−0.366	−0.465	−0.068	−0.574	–	–	–	–	–	–	–
C[C@]12CC[C@H]3[C@@H](CCC4=CC(=O)CC[C@@]43C)[C@@H]1CC[C@@H]2O [testosterone]	–	–	–	–	–	–	–	0.727	−1.401	−1.296	−1.306	−0.683	−1.060	ΔΨm [1]: 0.259
C=N[C@@H](C(=O)N[C@@H]1C(=O)N2[C@@H]1SC(C)(C)[C@@H]2C(=O)O)c1ccccc1 [metampicillin]	−0.390	−0.119	−0.247	−0.019	−0.623	0.609	−0.182	–	–	–	–	–	–	–
COc1c2ccoc2c(OC)c2oc(=O)ccc12 [isopimpinellin]	–	–	–	–	–	–	–	0.846	0.091	−0.190	0.580	0.191	−0.707	ΔΨm [1]: 0.188
COc1ccc2c3c1O[C@H]1C[C@@H](O)C=C[C@@]31CCN(C)C2 [galanthamine]	–	–	–	–	–	–	–	1.301	−0.338	−0.310	−0.312	−0.383	−0.377	ΔΨm [1]: −0.543
O=C(Cc1cccs1)N[C@@H]1C(=O)N2C(C(=O)[O-])=C(C[n+]3ccccc3)CS[C@H]12 [cephaloridine]	−0.963	0.543	−0.664	−0.802	−0.269	−0.905	−1.458	–	–	–	–	–	–	–
CC[C@H](C)C(=O)O[C@H]1C[C@@H](C)C=C2C=C[C@H](C)[C@H](CC[C@@H]3C[C@@H](O)CC(=O)O3)[C@H]21 [lovastatin, reference compound]	–	–	–	–	–	–	–	–	–	–	–	–	–	ΔΨm (composite Z-score vs DMSO) [1]: −0.122; ROS (composite Z-score vs DMSO) (reactive oxygen species): −1.374; GE-HTS (composite Z-score vs DMSO) (OXPHOS gene expression): 0.334; nucOX (composite Z-score vs DMSO) (nuOXPHOS transcripts): 0.280; mitoOX (composite Z-score vs DMSO) (mtOXPHOS transcripts): 0.382; Viability (composite Z-score vs DMSO) (C2C12 myotubes): −1.137; MTT (composite Z-score vs DMSO) [2]: −2.530
CN(CCCCCCCCCCN(C)C(=O)Oc1cccc([N+](C)(C)C)c1)C(=O)Oc1cccc([N+](C)(C)C)c1 [demecarium]	−0.664	0.088	−0.552	−0.515	−0.517	0.880	−1.431	–	–	–	–	–	–	–
CC[C@H]1CN2CC[C@H]1C[C@H]2[C@H](O)c1ccnc2ccc(OC)cc12 [hydroquinine]	−0.193	1.619	0.151	−0.044	0.529	0.231	−1.378	–	–	–	–	–	–	–
CC1(C)O[C@@H]2C[C@H]3[C@@H]4C[C@H](F)C5=CC(=O)C=C[C@]5(C)[C@H]4[C@@H](O)C[C@]3(C)[C@]2(C(=O)CO)O1 [flunisolide]	–	–	–	–	–	–	–	0.560	−0.106	−0.123	−0.076	−0.594	−0.529	ΔΨm (composite Z-score vs DMSO) [1]: 0.076; ROS (composite Z-score vs DMSO) (reactive oxygen species): 0.363; GE-HTS (composite Z-score vs DMSO) (OXPHOS gene expression): −0.472; nucOX (composite Z-score vs DMSO) (nuOXPHOS transcripts): −0.790; mitoOX (composite Z-score vs DMSO) (mtOXPHOS transcripts): 0.272; Viability (composite Z-score vs DMSO) (C2C12 myotubes): −0.717; MTT (composite Z-score vs DMSO) [2]: 0.186
CCOC(=O)C1=C(COCCN)NC(C)=C(C(=O)OC)C1c1ccccc1Cl (centres unmarked) [amlodipine]	0.003	−0.179	−1.328	−1.512	−0.655	0.030	−1.287	–	–	–	–	–	–	–
